{"source": "the supplement of paper PMC10403144", "note": "Some of the results follow.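 How the source made its calls: active = mitochondrial OCR inhibition above 30% at 1 uM; inactive = 30% or less.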 Single values are uncertain, as repeats are few or missing.", "data": [{"system": "Toxoplasma gondii RH tachyzoites", "assay": "inhibition of mitochondrial O2 consumption rate (% inhibition (relative to pre-injection OCR and atovaquone/antimycin A control)); higher = stronger ETC inhibition", "settings": "1 µM; injection port (sequential injection order): B", "values": [{"compound": "CC1(C)Cc2c(c(N3CCOCC3)nc3snc(Br)c23)CO1", "inhibition of mitochondrial O2 consumption rate": "inactive: -5.38"}, {"compound": "COc1cc(NC(C)CCCN)c2ncccc2c1", "note": "(stereo not given)", "inhibition of mitochondrial O2 consumption rate": "inactive: -4.49"}, {"compound": "O=C(NCCN1CCCC1)c1cc(NCCCCN2CCC(F)(F)CC2)nc2ccc(Cl)cc12", "inhibition of mitochondrial O2 consumption rate": "inactive: -10"}, {"compound": "COc1ccc(-c2onc(C(F)(F)F)c2-c2ccc(Cl)cc2)c(O)c1", "inhibition of mitochondrial O2 consumption rate": "inactive: -5.47"}, {"compound": "O=[N+]([O-])c1cn2c(n1)OC[C@@H](OCc1ccc(OC(F)(F)F)cc1)C2", "inhibition of mitochondrial O2 consumption rate": "inactive: -18"}, {"compound": "Cc1nn(C(=O)Nc2cccc(C(F)(F)F)c2)c(C)c1Sc1ncccn1", "inhibition of mitochondrial O2 consumption rate": "inactive: -17.3"}, {"compound": "Cc1[nH]c2cc(F)cc(F)c2c(=O)c1-c1ccc(Oc2ccc(OC(F)(F)F)cc2)cc1", "inhibition of mitochondrial O2 consumption rate": "active: 77.9"}, {"compound": "CN1CCCC1CCO[C@](C)(c1ccccc1)c1ccc(Cl)cc1", "note": "(stereo not given in full)", "inhibition of mitochondrial O2 consumption rate": "inactive: -7.41"}, {"compound": "CCC(C)NC(=O)c1ccc(NC(=O)C2(c3ccccc3)CCCC2)cc1", "note": "(stereo not given)", "inhibition of mitochondrial O2 consumption rate": "inactive: -3.43"}, {"compound": "COc1ccc(-c2cnc3ccc(NCc4ccc(S(N)(=O)=O)cc4)nn23)cn1", "inhibition of mitochondrial O2 consumption rate": "inactive: -1.6"}, {"compound": "Cc1nnc(NC(=O)c2cn(-c3ccccc3)nc2-c2ccccc2C)o1", "inhibition of mitochondrial O2 consumption rate": "inactive: -11.7"}, {"compound": "CC(C)(CN)c1nc(-c2ccc(Cl)c(O)c2)c(-c2ccnc(N)n2)[nH]1", "inhibition of mitochondrial O2 consumption rate": "inactive: -8.91"}, {"compound": "COc1ccc(C2CC(c3cccs3)=NN2C(=O)c2ccco2)cc1OC", "note": "(stereo not given)", "inhibition of mitochondrial O2 consumption rate": "inactive: -20.3"}, {"compound": "Cc1ccc2nc(C)c(-c3ccn(Cc4ccccc4)n3)n2c1", "inhibition of mitochondrial O2 consumption rate": "inactive: -14.9"}, {"compound": "OCCc1ccc(Nc2nccc(-c3nnc4ccccn34)n2)cc1", "inhibition of mitochondrial O2 consumption rate": "inactive: -3.21"}]}]}
